In US9939427B2, “Method for evaluating the scent performance of perfumes or perfume mixtures” (Symrise AG, priority 2013, dated 2018):
At least one compound was matched to its structure with a doubt left.

Key:
Format in all cases: cell-based
OR8D2 = biological target: T1, OR8D2 (Homo sapiens, UniProt Q9GZM6); assay: Ca-imaging of OR8D2-transfected HEK293 cells; conditions: single odorants 200 μM, listed as Muguet Alcohol
T1 construct: specific primers, which amplify the complete open reading frame; expressed in transfected cells; host or cells: HEK293
T1 sequence (Q9GZM6 1-311): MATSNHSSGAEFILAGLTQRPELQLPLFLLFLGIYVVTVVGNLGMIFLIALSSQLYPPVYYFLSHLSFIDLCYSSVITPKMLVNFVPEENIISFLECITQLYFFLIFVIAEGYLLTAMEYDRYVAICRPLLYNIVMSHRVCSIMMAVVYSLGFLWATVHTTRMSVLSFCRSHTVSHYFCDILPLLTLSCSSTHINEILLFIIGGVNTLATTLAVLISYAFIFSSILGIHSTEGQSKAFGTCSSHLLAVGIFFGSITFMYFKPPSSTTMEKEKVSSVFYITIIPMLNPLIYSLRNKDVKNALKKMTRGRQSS
Method: (§1) HEK293 cells were cultivated in Petri dishes (Ø35 mm) as previously described (Benbernou et al. 2007). We grow up HEK293 cells in culture medium containing standard DMEM with 10% heat-inactivated fetal bovine serum, 2 mM L-glutamine, 100 units/ml penicillin, and 100 units/ml streptomycin in a humidified atmosphere (37° C., 5% CO2). After 2-3 days, the transfection process was carried out, whereby the cell culture was 70-80% confluent. The calciumphosphate method was applied to transfect DNA plasmid transiently in HEK293 cells in case of Ca-imaging method.
(§2) Calcium cations and phosphate anions created crystal precipitations coupled with DNA which could invade into the cells through endocytosis. […]
(§3) Calcium imaging of the transfected HEK293 cells was done by using chambers determinate an inverted microscope (Olympus; IX70) using a 10× objective (CPIanFL N Olympus). Fluorescence emission was determined every 4 s by using a CCD camera (Charge Coupled Device, C9100 Hamamatsu). […] Odorants were manually monitored to drop each 4-5 s to transfected cells. […]
(§4) In experiments, Fura-2 Acetoxymethylester (Fura-2/AM) was applied. […] According to this feature, the analysis of 340/380 nm excitation ratio for Fura-2 allows to quantify intracellular calcium levels. […]

OR10A6 = biological target: T2, OR10A6 (Homo sapiens, UniProt Q8NH74); assay: Ca-imaging of OR10A6-transfected HEK293 cells; conditions: single odorants 200 μM, listed as Muguet Alcohol
T2 construct: specific primers, which amplify the complete open reading frame; expressed in transfected cells; host or cells: HEK293
T2 sequence (Q8NH74 1-314): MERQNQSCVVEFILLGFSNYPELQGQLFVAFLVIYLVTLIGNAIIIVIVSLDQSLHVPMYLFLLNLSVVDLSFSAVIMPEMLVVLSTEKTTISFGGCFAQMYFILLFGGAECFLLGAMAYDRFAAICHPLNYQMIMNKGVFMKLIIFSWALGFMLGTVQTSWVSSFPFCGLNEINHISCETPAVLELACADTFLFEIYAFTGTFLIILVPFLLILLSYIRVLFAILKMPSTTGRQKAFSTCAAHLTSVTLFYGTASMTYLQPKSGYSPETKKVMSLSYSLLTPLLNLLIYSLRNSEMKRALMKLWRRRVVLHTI
Method: as §1, §2, §3, §4

OR4C16 = biological target: T3, OR4C16 (Homo sapiens, UniProt Q8NGL9); assay: Ca-imaging of OR4C16-transfected HEK293 cells; conditions: single odorants 200 μM, listed as Octadecanal
T3 construct: specific primers, which amplify the complete open reading frame; expressed in transfected cells; host or cells: HEK293
T3 sequence (Q8NGL9 1-310): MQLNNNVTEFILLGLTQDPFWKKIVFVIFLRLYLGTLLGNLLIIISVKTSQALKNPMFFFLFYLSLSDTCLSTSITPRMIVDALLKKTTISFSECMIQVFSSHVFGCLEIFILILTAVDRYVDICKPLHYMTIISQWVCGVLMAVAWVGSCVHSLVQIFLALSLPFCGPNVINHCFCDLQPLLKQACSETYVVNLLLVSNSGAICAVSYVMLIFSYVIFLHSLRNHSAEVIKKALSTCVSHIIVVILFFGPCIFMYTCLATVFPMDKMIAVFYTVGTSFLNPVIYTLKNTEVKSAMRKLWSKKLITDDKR
Method: as §1, §2, §3, §4

OR5L1 = biological target: T4, OR5L1 (Homo sapiens, UniProt Q8NGL2); assay: Ca-imaging of OR5L1-transfected HEK293 cells; conditions: single odorants 200 μM
T4 construct: specific primers, which amplify the complete open reading frame; expressed in transfected cells; host or cells: HEK293
T4 sequence (Q8NGL2 1-311): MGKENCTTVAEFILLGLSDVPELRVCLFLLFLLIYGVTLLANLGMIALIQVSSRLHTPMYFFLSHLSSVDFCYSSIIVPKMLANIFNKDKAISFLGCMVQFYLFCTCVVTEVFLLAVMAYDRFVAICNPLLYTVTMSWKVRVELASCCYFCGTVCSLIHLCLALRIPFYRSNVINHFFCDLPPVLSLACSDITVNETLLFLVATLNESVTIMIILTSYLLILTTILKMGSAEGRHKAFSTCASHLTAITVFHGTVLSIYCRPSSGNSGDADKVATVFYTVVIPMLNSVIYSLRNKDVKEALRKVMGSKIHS
Method: as §1, §2, §3, §4

Structure (SMILES)	Response of OR8D2 to odorant, in words (OR8D2)	Response of OR10A6 to odorant, in words (OR10A6)	Response of OR4C16 to odorant, in words (OR4C16)	Response of OR5L1 to odorant, in words (OR5L1)
CC(C)(CO)Cc1ccccc1 [Muguet alcohol, Muguetalcohol]	OR8D2	OR10A6	–	–
CCCCCC1CCC(=O)O1 (centres unmarked) [Aldehyde C18]	–	–	OR4C16	OR5L1
C/C=C/C(=O)C1=C(C)CCCC1(C)C [B-Damascone, β-Damascone]	–	–	–	OR5L1
